Experiment [1] addresses T1, serine hydroxymethyltransferase (SHMT1), purified recombinant, tetrameric (human) (UniProt P34896).
T1 sequence: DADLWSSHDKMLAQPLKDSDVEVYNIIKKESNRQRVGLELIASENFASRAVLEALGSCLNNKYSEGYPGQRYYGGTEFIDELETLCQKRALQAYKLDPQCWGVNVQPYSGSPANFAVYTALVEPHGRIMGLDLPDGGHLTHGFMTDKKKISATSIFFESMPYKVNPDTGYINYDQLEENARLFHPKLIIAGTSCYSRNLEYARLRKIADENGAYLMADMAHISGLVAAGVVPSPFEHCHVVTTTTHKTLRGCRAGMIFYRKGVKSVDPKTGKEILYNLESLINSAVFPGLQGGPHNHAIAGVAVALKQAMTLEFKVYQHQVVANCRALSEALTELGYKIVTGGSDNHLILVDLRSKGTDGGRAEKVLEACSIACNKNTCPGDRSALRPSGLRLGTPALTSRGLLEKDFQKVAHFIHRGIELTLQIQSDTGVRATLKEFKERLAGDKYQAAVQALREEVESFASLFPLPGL
In words: co-IP; purified SHMT1 and Chimera-Long mixed 1 : 2 in 50 mM NaCl, 20 mM Hepes pH 7.5; anti-SHMT1 or anti-TYMS with Protein G-Plus agarose beads, overnight; western blot with anti-DHFR, anti-TYMS or anti-SHMT1; both purified. In general terms: In western blotting, separated proteins are transferred to a membrane and probed.

Experiment [2] deals with T1, serine hydroxymethyltransferase (SHMT1), purified recombinant, tetrameric (human). Description: far-Western, overlay or dot blot; proteins resolved by SDS/PAGE, blotted on PVDF, renatured on the membrane, incubated with 50 ng/mL of the purified protein in solution at 4 °C overnight; detected with antibodies to the protein in solution; both purified.
Experiment [3] has as its target Chimera‐Long (human DHFR‐TYMS bifunctional chimeric enzyme with 20 amino acid linker) (human). Description: differential scanning fluorimetry; 0.5 uM SHMT1 and 0.5 uM Chimera-Long mixed and incubated overnight at 4 °C in 20 mM Na Hepes, 50 mM NaCl; Sypro Orange; with or without CHO-THF, NADPH or dUMP; both purified. Background: Differential scanning fluorimetry follows unfolding on heating by fluorescence.

The target is the same in experiment [4]. In words: co-IP; purified SHMT1 and Chimera-Long mixed 1 : 2 in 50 mM NaCl, 20 mM Hepes pH 7.5; anti-SHMT1 or anti-TYMS with Protein G-Plus agarose beads, overnight; western blot with anti-DHFR, anti-TYMS or anti-SHMT1; both purified.
Experiment [5] has the same target. In words: far-Western, overlay or dot blot; proteins resolved by SDS/PAGE, blotted on PVDF, renatured on the membrane, incubated with 50 ng/mL of the purified protein in solution at 4 °C overnight; detected with antibodies to the protein in solution; both purified.
Experiment [6] has as its target Chimera‐Short (human DHFR‐TYMS bifunctional chimeric enzyme with 10 amino acid linker) (human). Described as above.

Positions count from the first letter of the chain named. Names may count otherwise. No constants are given. Whether binding was seen depends on the method and setting. For some of these results: A result given as binding can be weak or reduced; the word gives no strength. For some of these results: In cells and extracts the contact can be indirect.

With “Chimera‐Long (human DHFR‐TYMS bifunctional chimeric enzyme with 20 amino acid linker)”, the binding entry in experiment [1] and in experiment [2] was “binds” throughout.

B1: serine hydroxymethyltransferase (SHMT1), purified recombinant, tetrameric (enzyme, UniProt P34896 11-480)
chain: T1 sequence
Turning to B1, the binding result in experiment [3] is recorded as “binds”; in experiment [4], “binds”; in experiment [5], “binds”; in experiment [6], “no binding (tested: 50 ng·mL^−1 of the bait protein)”.

B2: dimeric variant of SHMT1 (H135N‐R137A) (enzyme, UniProt P34896 11-480)
chain: T1 sequence with H125N, R127A
On to B2, for which, in experiment [5], the binding entry was “no binding (tested: 50 ng·mL^−1 of the bait protein)”.

The values are drawn from paper PMC9299187.
